This is one part of the list. Many values rest on one well or one pass, so single values are uncertain.
System: Danio rerio embryo (th-expressing DA/NA neurons)
Experiment: percentage of embryos with altered th expression (decrease or increase vs DMSO control) in brain region; higher = more embryos with altered dopaminergic/noradrenergic marker expression; extreme values may be limits of the assay
Conditions: treatment window: 24-72 hpf, fixed 96 hpf
Experimental: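 Primary screen in zebrafish embryos (AB/TL). Embryos were treated with each compound at 1, 3, 10 or 30 µM in E3/PTU with 1% DMSO from 24 to 72 hpf, washed out, and fixed at 96 hpf. th (tyrosine hydroxylase) expression was scored by whole-mount in situ hybridization per DA/NA brain region (strong decrease, decrease, normal, increase, strong increase), with 7-16 embryos per treatment and no independent replicates. The value is the percentage of scored embryos whose th expression was altered (decrease or increase) relative to DMSO controls.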

Measured: percentage of embryos with altered th expression

N[C@@H]1C[C@H]1c1ccccc1.N[C@H]1C[C@@H]1c1ccccc1 [Tranylcypromine]
100%: 10 µM, brain region: MO
0%: 1 µM, brain region: telencephalon | 3 µM, brain region: DC1 | 3 µM, brain region: DC2 | 3 µM, brain region: DC3 | 3 µM, brain region: DC 4,5,6 | 3 µM, brain region: LC | 3 µM, brain region: MO | 3 µM, brain region: Pretectum | 3 µM, brain region: telencephalon | 10 µM, brain region: DC1 | 10 µM, brain region: DC2 | 10 µM, brain region: DC3 | 10 µM, brain region: LC | 10 µM, brain region: Pretectum | 10 µM, brain region: telencephalon | 30 µM, brain region: DC1 | 30 µM, brain region: DC2 | 30 µM, brain region: DC3 | 30 µM, brain region: LC | 30 µM, brain region: MO | 30 µM, brain region: Pretectum
16.7%: 10 µM, brain region: DC 4,5,6 | 30 µM, brain region: DC 4,5,6 | 30 µM, brain region: telencephalon

From the supplement of paper PMC7052299
